Reference: doi:10.1101/2024.07.23.604771
These are yes or no findings as the source states them, for the method shown. Binding seen in cells or lysates may run through a third protein. Some results given as binding are weak or reduced against the parent protein; the word gives no strength.

The chains behind the UniProt entries cited, without tags or fusion partners.
UniProt Q2HRC8: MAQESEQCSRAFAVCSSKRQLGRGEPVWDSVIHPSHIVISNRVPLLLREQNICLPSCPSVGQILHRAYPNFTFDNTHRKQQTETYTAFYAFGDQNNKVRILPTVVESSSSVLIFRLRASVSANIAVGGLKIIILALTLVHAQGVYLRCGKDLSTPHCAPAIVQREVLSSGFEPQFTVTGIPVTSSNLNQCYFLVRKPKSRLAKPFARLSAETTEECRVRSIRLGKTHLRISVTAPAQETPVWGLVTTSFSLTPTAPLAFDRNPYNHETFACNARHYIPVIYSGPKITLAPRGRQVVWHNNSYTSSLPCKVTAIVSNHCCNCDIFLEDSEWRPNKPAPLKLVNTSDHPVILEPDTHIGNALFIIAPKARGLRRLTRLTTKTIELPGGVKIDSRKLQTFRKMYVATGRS

B1: NOP14 (protein, UniProt P78316 1-857)
chain: MAKAKKVGARRKASGAPAGARGGPAKANSNPFEVKVNRQKFQILGRKTRHDVGLPGVSRARALRKRTQTLLKEYKERDKSNVFRDKRFGEYNSNMSPEEKMMKRFALEQQRHHEKKSIYNLNEDEELTHYGQSLADIEKHNDIVDSDSDAEDRGTLSAELTAAHFGGGGGLLHKKTQQEGEEREKPKSRKELIEELIAKSKQEKRERQAQREDALELTEKLDQDWKEIQTLLSHKTPKSENRDKKEKPKPDAYDMMVRELGFEMKAQPSNRMKTEAELAKEEQEHLRKLEAERLRRMLGKDEDENVKKPKHMSADDLNDGFVLDKDDRRLLSYKDGKMNVEEDVQEEQSKEASDPESNEEEGDSSGGEDTEESDSPDSHLDLESNVESEEENEKPAKEQRQTPGKGLISGKERAGKATRDELPYTFAAPESYEELRSLLLGRSMEEQLLVVERIQKCNHPSLAEGNKAKLEKLFGFLLEYVGDLATDDPPDLTVIDKLVVHLYHLCQMFPESASDAIKFVLRDAMHEMEEMIETKGRAALPGLDVLIYLKITGLLFPTSDFWHPVVTPALVCLSQLLTKCPILSLQDVVKGLFVCCLFLEYVALSQRFIPELINFLLGILYIATPNKASQGSTLVHPFRALGKNSELLVVSAREDVATWQQSSLSLRWASRLRAPTSTEANHIRLSCLAVGLALLKRCVLMYGSLPSFHAIMGPLQALLTDHLADCSHPQELQELCQSTLTEMESQKQLCRPLTCEKSKPVPLKLFTPRLVKVLEFGRKQGSSKEEQERKRLIHKHKREFKGAVREIRKDNQFLARMQLSEIMERDAERKRKVKQLFNSLATQEGEWKALKRKKFKK
B2: NOC4L (protein, UniProt Q9BVI4 1-516)
chain: MEREPGAAGVRRALGRRLEAVLASRSEANAVFDILAVLQSEDQEEIQEAVRTCSRLFGALLERGELFVGQLPSEEMVMTGSQGATRKYKVWMRHRYHSCCNRLGELLGHPSFQVKELALSALLKFVQLEGAHPLEKSKWEGNYLFPRELFKLVVGGLLSPEEDQSLLLSQFREYLDYDDTRYHTMQAAVDAVARVTGQHPEVPPAFWNNAFTLLSAVSLPRREPTVSSFYVKRAELWDTWKVAHLKEHRRVFQAMWLSFLKHKLPLSLYKKVLLIVHDAILPQLAQPTLMIDFLTRACDLGGALSLLALNGLFILIHKHNLEYPDFYRKLYGLLDPSVFHVKYRARFFHLADLFLSSSHLPAYLVAAFAKRLARLALTAPPEALLMVLPFICNLLRRHPACRVLVHRPHGPELDADPYDPGEEDPAQSRALESSLWELQALQRHYHPEVSKAASVINQALSMPEVSIAPLLELTAYEIFERDLKKKGPEPVPLEFIPAQGLLGRPGELCAQHFTLS

Molecular target: FLAG-ORF11 (KSHV) (UniProt Q2HRC8)
Assay: co-IP

Row | Binder | binding
1 | B1 | binds
2 | B2 | binds
